Test results: PubChem BioAssay AID504834 (National Center for Advancing Translational Sciences (NCATS), 2011)
Among all 320,000 compounds or so, about 22,000 (6.9%) were called active. The inconclusive results got no clear call from the source; some entries with a clear call stand among them for comparison. The call rests on the fitted dose curve; in most records, active means well fitted inhibition curve with a large enough effect; inconclusive means small, poorly fitted or top-dose-only effect, or another doubt; inactive means no such curve, though single readings can be large or run the other way. A potency beside an inconclusive call is a rough fit, not a confirmed value.
On the % scale 0 is the no-effect control and ±100 the full control effect; potency means the concentration at half of the fitted maximal effect.

Assay: Primary qHTS for delayed death inhibitors of the malarial parasite plastid, 96 hour incubation
Conditions: P. falciparum luciferase reporter growth; series mostly up to 28.7 µM
How it was run: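 Plates of compound plus infected erythrocytes (2% hematocrit, 0.05% parasitemia final) incubate 96 hours, 37 C, 5% CO2. Detection reagent added; reduced luminescence from the parasites' luciferase reporter flags inhibition.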
In the case of CCOC(=O)c1cnc(SCC(=O)c2ccccc2)nc1N, the Potency is reported as “inactive”.
With CCOc1ccc(NC(=O)c2cccc(-n3cnnn3)c2)cc1 the Potency was “inactive”.
For COc1ccc(S(=O)(=O)N(CC(=O)NCc2ccco2)C2CCCCC2)cc1OC, the Potency was “inactive”.
In the case of CCc1nnc(NC(=O)CSc2nc3ccccc3c(=O)n2CCCOC)s1, the Potency is reported as inconclusive: 18.5 µM [inhibitor, single point].
With Cn1c(=O)cc(N)n(Cc2ccccc2)c1=O the Potency was “inactive”.
For Cc1ccccc1NC(NC(=O)c1cccs1)C(Cl)(Cl)Cl (centres undefined), the Potency was “inactive”.
With C/C(Cn1nnc([N+](=O)[O-])n1)=N\NC(=O)c1ccc(C)cc1 the Potency was inconclusive: 9.28 µM [inhibitor, partial curve, poor fit].
In the case of O=C(/C=C/c1ccnc2ccccc12)c1cccs1, the Potency is reported as inconclusive: 0.0465 µM [inhibitor, full curve, poor fit].
In the case of Cc1ccc(-c2n[nH]c(=S)c3ccccc23)cc1, the Potency is reported as inconclusive: 14.7 µM [inhibitor, partial curve, poor fit].
In the case of Cc1cccc(OCC(O)Cn2c(NCc3cccnc3)nc3c2c(=O)[nH]c(=O)n3C)c1 (centres undefined), the Potency is reported as inconclusive: 1.65 µM [inhibitor, full curve].
For CC(NC(=O)C(C)N1c2cccc3cccc(c23)S1(=O)=O)c1ccccc1 (centres undefined), the Potency was “inactive”.
With Cc1c(C(=O)N2CCOCC2)sc(NC(=O)c2ccc([N+](=O)[O-])cc2)c1C#N the Potency was “inactive”.
In the case of Cc1ccccc1N1CCN(C2CCCN(C(=O)c3ccc(Cl)s3)C2)CC1 (centres undefined), the Potency is reported as inconclusive: 16.5 µM [inhibitor, single point].
For Cn1nccc1C(=O)NC1CCN(Cc2ccccc2)CC1, the Potency was “inactive”.
With CC(C)CC(c1nnnn1C1CCCCC1)N1CCN(C(=O)c2ccco2)CC1 (centres undefined) the Potency was inconclusive: 5.22 µM [inhibitor, partial curve].
For O=C(NC1CCCCC1)C(c1ccc(F)cc1)N(C(=O)c1cccs1)c1ccc2c(c1)OCO2 (centres undefined), the Potency was “inactive”.
In the case of C=CCOc1cccc(C2C(C(=O)c3ccco3)=C(O)C(=O)N2Cc2cccnc2)c1 (centres undefined), the Potency is reported as “inactive”.
In the case of CCCCN=C(C)c1c(O)c2ccccc2oc1=O, the Potency is reported as “inactive”.
In the case of CC(C)NC(=O)Nc1cccs1, the Potency is reported as inconclusive: 10.4 µM [inhibitor, partial curve].
In the case of CCN1CCN(c2ccc(S(=O)(=O)N3CCOCC3)cc2NC(=O)CCC(C)C)CC1, the Potency is reported as “inactive”.
For Cc1oc(-c2ccc(Cl)cc2)nc1CN1CCCC(C(=O)NCc2ccco2)C1 (centres undefined), the Potency was inconclusive: 14.7 µM [inhibitor, partial curve, poor fit].
With CCCN(CCO)Cc1ccc(F)c(Br)c1 the Potency was “inactive”.
With Cc1cccc(N(C)S(=O)(=O)c2nnc(NC(=O)C3CCCCC3)s2)c1 the Potency was “inactive”.
For CC(C)[C@H]1CC[C@@H](C)C(C(=O)c2ccccc2)C1=O (some centres undefined), the Potency was inconclusive: 9.28 µM [inhibitor, single point].
With COc1cccc(-c2cc3nc(-c4ccccc4)cc(N4CCCC(O)C4)n3n2)c1 (centres undefined) the Potency was “inactive”.
In the case of Cc1ccc(C(=O)NCCc2nnc3ccc(SCC(=O)Nc4ccccc4C)nn23)cc1, the Potency is reported as active: 10.4 µM.
For CCOC(=O)CNc1ccc(C(=O)OCC)cc1[N+](=O)[O-], the Potency was “inactive”.
With CN(CC(=O)Nc1ccc(N2CCOCC2)cc1)Cc1c(O)ccc2ccccc12 the Potency was “inactive”.
For CC(C)N(Cc1ccccc1)C(=S)NCc1ccccc1, the Potency was inconclusive: 11.7 µM [inhibitor, partial curve, poor fit].
For Cc1[nH]c2ccccc2c1/C=C(\C#N)C(=O)NC(C)c1ccccc1 (centres undefined), the Potency was inconclusive: 0.0657 µM [inhibitor, full curve, poor fit].
With O=C(N/N=C/C=C/c1ccco1)c1cnccn1 the Potency was inconclusive: 18.5 µM [inhibitor, single point].
In the case of Cc1cc(C)cc(C(=O)N2CCC(C(N)=O)CC2)c1, the Potency is reported as inconclusive: 13.1 µM [inhibitor, single point].
With COc1cc(CN2CCN(S(=O)(=O)c3ccc(F)cc3)CC2)cc(OC)c1OC the Potency was inconclusive: 13.1 µM [inhibitor, partial curve].
For O=C1N(Cc2cccnc2)C[C@@H]2C[C@@H](c3ccccc3C#Cc3ccccc3)N3CCC[C@@]123, the Potency was inconclusive: 18.5 µM [inhibitor, single point].
For O=C(O)c1cccc(Cl)n1, the Potency was “inactive”.
With COc1ccc(C(CNC(=O)c2ccc(C)c(S(=O)(=O)N3CCCCC3)c2)N(C)C)cc1OC (centres undefined) the Potency was “inactive”.
With O=C(NCCc1cccs1)C(c1ccccc1)c1ccccc1 the Potency was active: 11.7 µM.
For COc1ccccc1NS(=O)(=O)c1cc(NC(=O)c2ccc(Cl)nc2)ccc1Cl, the Potency was active: 3.29 µM.
In the case of COCC(=O)Nc1c(C(=O)Nc2ccccc2OC)oc2ccccc12, the Potency is reported as inconclusive: 0.522 µM [inhibitor, full curve, poor fit].
In the case of Cc1cc(C)c(NS(=O)(=O)c2ccc3c(c2)NC(=O)CC(=O)N3)c(C)c1, the Potency is reported as inconclusive: 14.7 µM [inhibitor, single point].
With CN(C)CCn1c2c(c(SCC(=O)Nc3ccccc3C(F)(F)F)nc1=O)CCCC2 the Potency was inconclusive: 18.5 µM [inhibitor, single point].
In the case of COc1cccc(N=c2oc3cc(O)ccc3cc2C(=O)NCC2CCCO2)c1 (centres undefined), the Potency is reported as inconclusive: 10.4 µM [inhibitor, single point].
In the case of CCOC(=O)c1ccccc1NC(=O)CSc1ccccc1, the Potency is reported as “inactive”.
In the case of CC(=O)c1nc(-c2ccccc2)sc1C, the Potency is reported as inconclusive: 1.47 µM [inhibitor, partial curve, poor fit].
For O=C(c1ccccc1)N1CCN(C2c3cccc4cccc(c34)C2NS(=O)(=O)c2ccccc2)CC1 (centres undefined), the Potency was active: 4.15 µM.
With CSc1cccc(N2CC(C(=O)N(CC(C)C)c3c(N)n(Cc4ccccc4)c(=O)[nH]c3=O)CC2=O)c1 (centres undefined) the Potency was inconclusive: 7.38 µM [inhibitor, partial curve].
With CC1CC(C)(C)NC(=S)N1CCCC(=O)Nc1ccccc1F (centres undefined) the Potency was inconclusive: 18.5 µM [inhibitor, single point].
In the case of O=C(NCc1ccc(Cl)cc1)C(=O)NCC1OCCN1S(=O)(=O)c1cc(F)ccc1F (centres undefined), the Potency is reported as inconclusive: 0.104 µM [inhibitor, full curve, poor fit].
With O=C(c1cccc(S(=O)(=O)N2CCOCC2)c1)N1CCN(c2ccc(F)cc2)CC1 the Potency was “inactive”.
In the case of O=C(CCNC(=O)c1ccc([N+](=O)[O-])cc1)Nc1ccc(S(=O)(=O)N2CCOCC2)cc1, the Potency is reported as inconclusive: 7.38 µM [inhibitor, partial curve].
With O=C(O)c1ccc(CP(=O)(c2ccccc2)c2ccccc2)cc1 the Potency was inconclusive: 10.4 µM [inhibitor, single point].
With CCC(C)NC(=O)C1CCC(=O)N1Cc1ccc(C)cc1 (centres undefined) the Potency was active: 11.7 µM.
In the case of CCCCCCCn1c(=O)c(C(=O)OC)c(N)c2ccccc21, the Potency is reported as inconclusive: 18.5 µM [inhibitor, single point].
In the case of CCC(CO)NC(=O)c1cccc(S(=O)(=O)N2c3ccccc3CC2C)c1 (centres undefined), the Potency is reported as inconclusive: 14.7 µM [inhibitor, single point].
For COc1ccc(NC(=O)c2ccc(N3C(=O)C4CC=C(C)CC4C3=O)cc2)c(OC)c1 (centres undefined), the Potency was “inactive”.
For NC(=O)c1ccc(C(=O)N/N=C(/Cc2ccccc2)c2ccccc2)cc1, the Potency was inconclusive: 16.5 µM [inhibitor, single point].
For O=C(NC1CC1)c1cc(Cl)ccc1[N+](=O)[O-], the activity change, negative = inhibition was inactive: -1.54% [at 5.75 µM].
For CNC1C(O)C(OC2C(NC(=O)C(O)CN)CC(N)C(OC3OC(CN)C(O)C(O)C3O)C2O)OCC1(C)O (centres undefined), the Potency was “inactive”.
With CN1CCN(C2=Cc3ccccc3Sc3cc(F)c(F)cc32)CC1 the Potency was inconclusive: 11.7 µM [inhibitor, single point].
In the case of C/C(Cn1nnc([N+](=O)[O-])n1)=N\NC(=O)c1cccc(Cl)c1, the Potency is reported as active: 11.7 µM.
With O=C(/C=C/c1ccc2c(c1)OCO2)NCCSCc1ccc(Cl)cc1Cl the Potency was “inactive”.
In the case of Cc1nnnn1/C(=C\c1ccccc1)C(=O)OCC(=O)N1CC2(C)CC1CC(C)(C)C2 (centres undefined), the Potency is reported as inconclusive: 9.28 µM [inhibitor, single point].
With O=C(CCc1ccccc1)NNC(=O)c1ccccn1 the Potency was inconclusive: 11.7 µM [inhibitor, single point].
For COc1cccc(CC2(CO)CCCN(C(=O)c3cc[n+]([O-])cc3)C2)c1 (centres undefined), the Potency was inconclusive: 18.5 µM [inhibitor, single point].
For CCN(CC)C(=O)CN(C)S(=O)(=O)c1cccc2nsnc12, the Potency was inconclusive: 3.29 µM [inhibitor, full curve, poor fit].
For COc1ccc(CNC(=O)N2CCN(S(=O)(=O)c3ccccc3)CC2)cc1, the Potency was “inactive”.
For O=C(N/N=C/c1cc(Br)cc(Br)c1O)c1cccc(N2CCCC2=O)c1, the Potency was active: 10.4 µM.
In the case of COc1cc(/C=N/NC(=O)C(=O)Nc2ccccn2)ccc1O, the Potency is reported as “inactive”.
With COc1ccccc1NC(=O)Cn1nc(C)n2cccc2c1=O the Potency was inconclusive: 6.57 µM [inhibitor, partial curve].
With CCN1CCN(C(CNS(=O)(=O)c2ccc(OC)c(C)c2)c2cccnc2)CC1 (centres undefined) the Potency was active: 14.7 µM.
With O=C(Nc1nc2ccc(Br)cc2s1)c1ccco1 the Potency was inconclusive: 9.28 µM [inhibitor, partial curve, poor fit].
In the case of COc1ccc(/C=N/Nc2nc(-c3ccc(Cl)cc3)cc(C(F)(F)F)n2)cc1OC, the Potency is reported as inconclusive: 18.5 µM [inhibitor, single point].
With COc1ccc(S(=O)(=O)Cc2ccc(C(=O)NCc3cccs3)o2)cc1 the Potency was inconclusive: 18.5 µM [inhibitor, single point].
